In article PMC12516175:

Target: SLC7A11 (rat (endogenous in RIN5mF))
Assay: co-IP; lysates of dRib-treated RIN5mF cells incubated overnight with Protein A/G magnetic bead-antibody mixtures; eluates analysed by western blotting

binding: no binding
B1: TRIM26 (enzyme, UniProt P62603 1-542)
chain: MAVSAPLRSLEEEVTCSICLDYLRDPVTIDCGHVFCRSCTSDIRPISGNRPVCPLCKKPFKKENIRPVWQLASLVENIERLKVDNGKQPGELAREPQDMKLCERHQEKLHYYCEDDGKLLCVMCRESREHRPHTAVLVEKAALPHREKILNHLNTLRRDRDKIQGFQAKGEADILAALTKLQEQRQYIVAEFKQGHQFLKKREQHLLDQLATLEQLLTEGREKFKTRGVSELDRLTLVISELEGKARQPAAELMQLSDRLSCLSLRYPRKKFWIGKAIPHMVKRKAGEFSDKLLSLQRGLRQFQGKLLRDLEYKTVSVTLDPQSASGYLQLSEDWKCITYTGQYQSDCLLPQQFDCEPGVLGSKGFTWGKVYWEVELEREGWSEDEEEGEEEEEGEEEEEDEEPGYGDRYEDWETDEEDESLGEEEEEEEEEEEEVQESCMVGVAKDSVKRKGNLSLRPEDGVWALRLSPSGIWANTSPEAQLFPVLRPRRVGIALDYEGGTVTFTNAESQELIYTFTTTFTRRLVPFLWLKWPEARLLLRP

These are yes or no findings as the source states them, for the method shown. Binding seen in cells or lysates may run through a third protein.
